Results deposited as PubChem BioAssay AID1259254 (NCATS, 2017).
Assay: 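Genome-wide screen for genes that prevent DNA re-replication in cancer cells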 (primary screen). System: human HCT116 colorectal cancer cells. Reagent: single siRNA against human genes. Time to read-out: 3 days. Read-out: 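Nuclei stained with Hoechst and imaged; cell-cycle phase assigned by DNA content; G2 share scaled per plate, non-targeting siRNA 0%, GMNN siRNA 100%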. Direction: G2 robust z-score: higher = more G2 cells, more excess DNA replication. Active means: 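Active siRNAs have a G2 robust z of 5 or more median absolute deviations over the median, which in these data means about 38% or higher of GMNN control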.
The deposit covers about 59,000 reagents; this is an unselected part. Of all reagents, about 1,550 (2.6%) were called active. 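G2 share is only a proxy for re-replication; each gene was hit by three separate siRNAs, and active genes were retested.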 Not all columns of the deposit are shown. Not given: the amount of reagent.

ZNF777 [SID160738472] → G2 robust z-score: -0.499; outcome: inactive
ZNF777 [SID160738473] → G2 robust z-score: -0.829; outcome: inactive
ZNF777 [SID160738474] → G2 robust z-score: -0.563; outcome: inactive
LOC391322 [SID160766674] → G2 robust z-score: -0.631; outcome: inactive
LOC391322 [SID160766675] → G2 robust z-score: -0.527; outcome: inactive
LOC391322 [SID160766676] → G2 robust z-score: -0.904; outcome: inactive
PRXL2B [SID160756605] → G2 robust z-score: -0.49; outcome: inactive
PRXL2B [SID160756606] → G2 robust z-score: -0.823; outcome: inactive
PRXL2B [SID160756607] → G2 robust z-score: -0.0825; outcome: inactive
PABPN1L [SID160725271] → G2 robust z-score: -0.489; outcome: inactive
PABPN1L [SID160733259] → G2 robust z-score: -0.329; outcome: inactive
PABPN1L [SID160766568] → G2 robust z-score: 0.353; outcome: inactive
CCT4 [SID160728769] → G2 robust z-score: 1.72; outcome: inactive
CCT4 [SID160728770] → G2 robust z-score: 3.22; outcome: inactive
CCT4 [SID160728771] → G2 robust z-score: 0.769; outcome: inactive

2 entries already listed, ordered by “G2 robust z-score”, high to low.
ZNF777 [SID160738472] → G2 robust z-score: -0.499; outcome: inactive
ZNF777 [SID160738473] → G2 robust z-score: -0.829; outcome: inactive

More results follow:
ZNF473 [SID160737178] → G2 robust z-score: -0.0655; outcome: inactive
ZNF473 [SID160737180] → G2 robust z-score: -0.197; outcome: inactive
ZNF473 [SID160737181] → G2 robust z-score: -0.663; outcome: inactive
PRPF31 [SID160730917] → G2 robust z-score: -1.23; outcome: inactive
PRPF31 [SID160737654] → G2 robust z-score: 3.83; outcome: inactive
PRPF31 [SID160737655] → G2 robust z-score: 1.98; outcome: inactive
NSF [SID160722133] → G2 robust z-score: -0.0884; outcome: inactive
NSF [SID160722239] → G2 robust z-score: -0.211; outcome: inactive
NSF [SID160722341] → G2 robust z-score: -0.908; outcome: inactive
